Assay results reported in article doi:10.1101/473397.
These are yes or no findings as the source states them, for the method shown. Binding seen in cells or lysates may run through a third protein. Tags and fused reporters may be left off the sequences shown.

How the values were obtained:
[1] = molecular target: FLAG-tagged NDRG2 C-terminal truncation; experiment: co-IP
[2] = molecular target: FLAG-tagged NDRG2 N-terminal truncation; experiment: co-IP

B1: HA-tagged E3 ligase FBX011 (protein, UniProt Q86XK2 1-927)
chain: MNSVRAANRRPRRVSRPRPVQQQQQQPPQQPPPQPPQQQPPQQQPPPPPQQQQQQQPPPPPPPPPPLPQERNNVGERDDDVPADMVAEESGPGAQNSPYQLRRKTLLPKRTACPTKNSMEGASTSTTENFGHRAKRARVSGKSQDLSAAPAEQYLQEKLPDEVVLKIFSYLLEQDLCRAACVCKRFSELANDPILWKRLYMEVFEYTRPMMHPEPGKFYQINPEEYEHPNPWKESFQQLYKGAHVKPGFAEHFYSNPARYKGRENMLYYDTIEDALGGVQEAHFDGLIFVHSGIYTDEWIYIESPITMIGAAPGKVADKVIIENTRDSTFVFMEGSEDAYVGYMTIRFNPDDKSAQHHNAHHCLEITVNCSPIIDHCIIRSTCTVGSAVCVSGQGACPTIKHCNISDCENVGLYITDHAQGIYEDNEISNNALAGIWVKNHGNPIIRRNHIHHGRDVGVFTFDHGMGYFESCNIHRNRIAGFEVKAYANPTVVRCEIHHGQTGGIYVHEKGRGQFIENKIYANNFAGVWITSNSDPTIRGNSIFNGNQGGVYIFGDGRGLIEGNDIYGNALAGIQIRTNSCPIVRHNKIHDGQHGGIYVHEKGQGVIEENEVYSNTLAGVWVTTGSTPVLRRNRIHSGKQVGVYFYDNGHGVLEDNDIYNHMYSGVQIRTGSNPKIRRNKIWGGQNGGILVYNSGLGCIEDNEIFDNAMAGVWIKTDSNPTLRRNKIHDGRDGGICIFNGGRGLLEENDIFRNAQAGVLISTNSHPILRKNRIFDGFAAGIEITNHATATLEGNQIFNNRFGGLFLASGVNVTMKDNKIMNNQDAIEKAVSRGQCLYKISSYTSYPMHDFYRCHTCNTTDRNAICVNCIKKCHQGHDVEFIRHDRFFCDCGAGTLSNPCTLAGEPTHDTDTLYDSAPPIESNTLQHN
binding [1]: no binding | binding [2]: no binding
